Measurements: patent US12281179 (dated 2025)

Assay: general procedure: solution-phase peptide synthesis; EDC×HCl, DIPEA
Details: whole synthesis, HCl salt

For “FNBA-Glu(OtBu)-Lys(Boc)-HSer(Trt)-GlyOtBu”, the “crude HPLC purity” value (HPLC) was 90.6% and the crude yield (with assay correction) was 85.5%.
